Measurements: paper PMC6636751
Results are given in words; binding and its absence hold for the method and conditions named. Binding seen in cells or lysates may run through a third protein. Some entries that bind do so weakly or less than the wild type.

Sequences of proteins named here, by UniProt entry; tags and fusion partners are left off. Residues count along the entry.
UniProt Q99683, residues 1-400: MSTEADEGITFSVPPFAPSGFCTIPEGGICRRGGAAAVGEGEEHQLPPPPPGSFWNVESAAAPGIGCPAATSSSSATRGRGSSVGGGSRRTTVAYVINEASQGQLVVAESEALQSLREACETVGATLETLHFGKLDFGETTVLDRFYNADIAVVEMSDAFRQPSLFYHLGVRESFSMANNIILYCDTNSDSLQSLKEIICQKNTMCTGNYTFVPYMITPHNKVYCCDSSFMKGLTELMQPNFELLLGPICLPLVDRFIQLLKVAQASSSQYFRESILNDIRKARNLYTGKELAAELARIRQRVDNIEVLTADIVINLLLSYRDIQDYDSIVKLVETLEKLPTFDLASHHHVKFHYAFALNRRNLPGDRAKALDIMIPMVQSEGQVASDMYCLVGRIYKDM

Biological target: ASK1-N (N-terminal fragment of ASK1 with the N-terminal coiled-coil domain, sequence 1-400), HA- or Flag-tagged (human) (UniProt Q99683)
Assay: co-IP; HEK293T transfected with combinations of ASK1-N-HA, ASK1-N-Flag, Trxlp-HA and human TRX1-HA; lysates precipitated with anti-flag antibody; blots with anti-Flag or anti-HA

## ASK1-N (N-terminal fragment of ASK1 with the N-terminal coiled-coil domain, sequence 1-400), HA- or Flag-tagged (from UniProt Q99683 1-400) (domain or fragment)
  binding: binds
